PubChem BioAssay AID1259264 – Sanger Institute – 2017

- Test: 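Kinase-wide knock-down to find genes that strengthen targeted drug effects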 (primary screen)
- Cells: CL40 human colorectal cancer cells
- Reagent: siRNA pool against human genes
- Conditions: DMSO, or an anchor drug: BYL719 at 1 µM, cetuximab at 5 µg/ml, or trametinib at 10 nM
- Measurement: 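Replicate-mean viability versus a non-targeting pool, robust z-score from control wells, and mean synergy with BYL719 1 µM, cetuximab 5 µg/ml or trametinib 10 nM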
- Reading the numbers: robust z-score, siRNA alone: higher = more viable cells
- Active means: 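Essential call: siRNA with no drug reaches a robust z under -3 (low cell count); drug synergy scores do not affect it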
- Meaning of the calls: active = essential (lowers viability alone); inactive = not essential
The deposit covers 794 reagents; below is a random part of them. Over the whole deposit, 15 (1.9%) got an active call. 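Calls rest on knock-down alone at z-score below -3; synergy scores with the three drugs do not decide them.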 A number with no mark means an inactive call. Further read-outs or replicates are left out here. Not stated in the record: the amount of reagent, the time to read-out.

Depletion of STKLD1 resulted in: robust z-score, siRNA alone -1.54. Knock-down of BRSK1 came out at: robust z-score, siRNA alone 0.239. With knock-down of PIK3R3, the screen gave robust z-score, siRNA alone 0.539. PACSIN1 gave robust z-score, siRNA alone 0.37. TEK gave robust z-score, siRNA alone 0.539. Silencing of BCKDK gave: robust z-score, siRNA alone 0.539.

Depletion of PRKY gave: robust z-score, siRNA alone -0.302. Knock-down of MGA gave: robust z-score, siRNA alone -1.42. With knock-down of PRKAR2A, the screen gave robust z-score, siRNA alone 0.539. MAP3K14 showed robust z-score, siRNA alone -0.452. RPS6KB2 showed robust z-score, siRNA alone 0.539. Knock-down of LMTK2 came out at: robust z-score, siRNA alone 0.539.

For MUSK, the values are robust z-score, siRNA alone -0.165. Knock-down of PANK3 resulted in: robust z-score, siRNA alone 0.539. With knock-down of PTK6, the record shows robust z-score, siRNA alone 0.42. Against EPHA10 the deposit lists robust z-score, siRNA alone -1.13. NLK scored robust z-score, siRNA alone -0.0578. For CREBBP the deposit lists robust z-score, siRNA alone 0.539.

PRKG1 scored robust z-score, siRNA alone 0.539. Against FGFR3, the entry reads robust z-score, siRNA alone -0.702. Depletion of SIK2 came out at: robust z-score, siRNA alone -0.282. For PDK3 the deposit lists robust z-score, siRNA alone 0.539. Against MAP3K4 the deposit lists robust z-score, siRNA alone -0.712. Depletion of ACVRL1 came out at: robust z-score, siRNA alone 0.389.

IKBKG showed robust z-score, siRNA alone -1.93. After knock-down of BMAL1, the record shows robust z-score, siRNA alone -0.0891. With knock-down of ITK, the screen gave robust z-score, siRNA alone 0.0893. Knock-down of NUP107 gave: robust z-score, siRNA alone -9.47 (active). Silencing of PKDCC resulted in: robust z-score, siRNA alone -0.545. With knock-down of PRKCQ, the record shows robust z-score, siRNA alone 0.539.

With knock-down of ROCK1, the record shows robust z-score, siRNA alone 0.539. With knock-down of MAP3K8 the results were robust z-score, siRNA alone -1.86. With knock-down of PAK6, the screen gave robust z-score, siRNA alone 0.539. MAP4K4 showed robust z-score, siRNA alone 0.342. Against RTN4, the values are robust z-score, siRNA alone 0.539. Depletion of ADCK5 came out at: robust z-score, siRNA alone 0.323.

Laid out differently: results already given.
gene symbol	robust z-score, siRNA alone
FGFR3	-0.702
SIK2	-0.282
PDK3	0.539
MAP3K4	-0.712
